The other results are listed elsewhere or left out. Shown are side measurements of this screen, not its main read-out; they come without a call. The list favours compounds with an active or inconclusive main result. Words in brackets tell the shape of the fitted curve; partial curves, single points and poor fits give uncertain potencies.
Test: qHTS Assay for Modulators of Lamin A Splicing
Conditions: HeLa LMNA splicing GFP/RFP minigene ratio, 48 h
Method in brief: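 Read-out is the ratio of GFP to DsRed2 object intensity, acquired by 488 nm laser-scanning cytometry on HeLa lamin A-EGFP minigene reporter cells. Compound incubation 48 hrs at 37 °C in Opti-MEM with 2% FBS; DMSO 0.5% final.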

[1] = measured here: GFP splicing reporter channel
[2] = measured here: RFP viability control channel

Compound	AC50 [1]	AC50 [2]
CCOc1ccc(C(CC(=O)O)NC(=O)c2cccs2)cc1 (centres undefined)	20 µM [falling, partial curve, poor fit]	
CN(C)S(=O)(=O)c1ccc(NC(=O)CSc2nc3ccccc3n2-c2ccccc2)cc1		25.1 µM [rising, single point]
CC(=O)Nc1ncc(Cc2cccc(Cl)c2)s1	7.94 µM [rising, full curve, poor fit]	
O=C(CSC1=NC2(CCCCCC2)N=C1c1ccccc1)Nc1ccc2c(c1)OCCO2		35.5 µM [rising, single point]
CCC/C(O)=C1\C(=O)CC(c2ccccc2)CC1=NCCc1c(C)[nH]c2ccccc12 (centres undefined)	0.0316 µM [rising, single point]	28.2 µM [rising, single point]
CCOC(=O)N1CCC(Nc2cccc(SC)c2)CC1	22.4 µM [rising, partial curve, poor fit]	22.4 µM [rising, single point]
S=c1[nH]cnc2scc(-c3ccccc3)c12		11.2 µM [rising, partial curve]
FC(F)(F)C(F)(F)C(F)(F)C(F)(F)C(F)(F)C(F)(F)C(F)(F)C(F)(F)Br	35.5 µM [falling, single point]	0.708 µM [falling, partial curve, poor fit]
CCN(CC)Cc1c(O)ccc2c(-c3ccccc3)cc(=O)oc12		25.1 µM [rising, partial curve, poor fit]
O=C(Nc1ccccc1)c1ccc(-c2ccccc2C(F)(F)F)o1	11.2 µM [rising, partial curve]	17.8 µM [rising, partial curve]
c1ccc2c(c1)OCC(CNc1ncnc3nc[nH]c13)O2 (centres undefined)	12.6 µM [rising, single point]	17.8 µM [rising, partial curve]
CCOc1ccc2nc(N3CCC(C(=O)N4CCN(C(=O)c5ccco5)CC4)CC3)sc2c1	11.2 µM [rising, partial curve]	17.8 µM [rising, single point]
CCCc1cc(-c2n[nH]c(=S)n2CC(C)C)cs1		35.5 µM [rising, single point]
Cn1c(=O)c2c(ncn2CC(O)CNc2ccc(Cl)cc2)n(C)c1=O (centres undefined)		35.5 µM [rising, single point]
COc1ccccc1NS(=O)(=O)c1ccc2oc(SCc3ccc(F)cc3)nc2c1		2.51 µM [rising, partial curve]
O=C(CSCC(=O)N1CCCc2ccccc21)Nc1nc(-c2ccccc2)cs1	6.31 µM [rising, partial curve]	10 µM [rising, partial curve]
CC(=O)OCC(=O)[C@@]1(O)[C@H](C)C[C@@H]2[C@H]3CCC4=CC(=O)C=C[C@]4(C)[C@]3(F)[C@@H](O)C[C@@]21C	0.00178 µM [rising, full curve, poor fit]	3.16 µM [rising, single point]
O=C(CCl)NCc1c(Cl)cccc1-n1cccc1	17.8 µM [falling, single point]	35.5 µM [falling, single point]
Cc1cccc(C(=O)N[C@H](C(=O)Nc2nc3ccccc3[nH]2)C(C)C)c1	5.01 µM [falling, partial curve]	0.158 µM [falling, full curve]
O=C(CSCc1c(F)cccc1Cl)NCc1cccnc1		8.91 µM [rising, partial curve, poor fit]
O=C(Cc1ccccc1)Nc1ccccc1N1CCN(c2ccccc2)CC1	11.2 µM [rising, single point]	15.8 µM [rising, single point]
COc1ccc(-c2nc3sc(CCNC(=O)c4cc(Cl)ccc4OC)c(C)n3n2)cc1		31.6 µM [rising, single point]
CSc1cccc(NC(=O)COc2ccccc2C)c1		3.16 µM [rising, full curve, poor fit]
CC1CN(S(=O)(=O)c2ccc(C(=O)NCCCn3ccnc3)cc2)CC(C)O1 (centres undefined)	1 µM [rising, full curve, poor fit]	0.891 µM [rising, full curve]
Cc1oc2c(cc(NS(=O)(=O)c3ccc4c5c(cccc35)C(=O)N4)c3ccccc32)c1C(=O)OC(C)C	15.8 µM [falling, single point]	
Cc1ccccc1N(C(=O)c1csnn1)C(C(=O)NC(C)(C)C)c1cccs1 (centres undefined)	35.5 µM [falling, single point]	
CCCc1nc(SCC(=O)Nc2cc(C)on2)c2ccccc2n1	8.91 µM [rising, single point]	

3 structures from above, sorted by molar mass, low to high.
Compound	AC50 [1]	AC50 [2]
c1ccc2c(c1)OCC(CNc1ncnc3nc[nH]c13)O2 (centres undefined)	12.6 µM [rising, single point]	17.8 µM [rising, partial curve]
CC1CN(S(=O)(=O)c2ccc(C(=O)NCCCn3ccnc3)cc2)CC(C)O1 (centres undefined)	1 µM [rising, full curve, poor fit]	0.891 µM [rising, full curve]
COc1ccccc1NS(=O)(=O)c1ccc2oc(SCc3ccc(F)cc3)nc2c1		2.51 µM [rising, partial curve]
